Test results taken from the M2OR odorant receptor database.
The entries are a selection whose mix differs from that of the whole data set. The calls were merged from several studies; some rest on single wells.

How the values were obtained:
Details in all cases: stereoisomer not certain
UniProt Q8VGJ3 = target: T1, UniProt Q8VGJ3
T1 sequence (whole entry): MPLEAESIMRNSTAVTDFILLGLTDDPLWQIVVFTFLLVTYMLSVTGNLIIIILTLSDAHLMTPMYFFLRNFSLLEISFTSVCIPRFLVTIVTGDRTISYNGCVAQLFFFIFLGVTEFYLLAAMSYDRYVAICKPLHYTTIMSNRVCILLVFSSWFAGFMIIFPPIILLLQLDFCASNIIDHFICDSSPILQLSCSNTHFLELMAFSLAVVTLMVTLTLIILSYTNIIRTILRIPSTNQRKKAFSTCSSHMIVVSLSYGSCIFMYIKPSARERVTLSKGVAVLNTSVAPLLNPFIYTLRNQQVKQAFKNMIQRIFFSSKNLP
Procedure, shortened: (§1)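 Whether a receptor–molecule pair is responsive (active) rests on the original authors' judgment that its measured signal was statistically different from baseline. Pairs without that judgment are non-responsive (inactive). Sources used varied assay methods, commonly transient luciferase assays in mammalian cell lines.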

UniProt Q8VGL0 = target: T2, UniProt Q8VGL0
T2 sequence (whole entry): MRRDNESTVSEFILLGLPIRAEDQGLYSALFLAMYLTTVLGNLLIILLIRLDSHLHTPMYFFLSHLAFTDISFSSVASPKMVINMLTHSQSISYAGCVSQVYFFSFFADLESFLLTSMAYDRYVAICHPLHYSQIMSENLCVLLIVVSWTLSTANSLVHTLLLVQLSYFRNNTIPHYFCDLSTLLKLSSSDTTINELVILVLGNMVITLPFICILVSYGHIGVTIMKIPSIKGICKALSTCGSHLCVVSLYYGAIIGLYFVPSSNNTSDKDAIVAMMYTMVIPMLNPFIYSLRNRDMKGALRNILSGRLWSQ
Procedure, shortened: as §1

UniProt Q8VGU3 = target: T3, UniProt Q8VGU3
T3 sequence (whole entry): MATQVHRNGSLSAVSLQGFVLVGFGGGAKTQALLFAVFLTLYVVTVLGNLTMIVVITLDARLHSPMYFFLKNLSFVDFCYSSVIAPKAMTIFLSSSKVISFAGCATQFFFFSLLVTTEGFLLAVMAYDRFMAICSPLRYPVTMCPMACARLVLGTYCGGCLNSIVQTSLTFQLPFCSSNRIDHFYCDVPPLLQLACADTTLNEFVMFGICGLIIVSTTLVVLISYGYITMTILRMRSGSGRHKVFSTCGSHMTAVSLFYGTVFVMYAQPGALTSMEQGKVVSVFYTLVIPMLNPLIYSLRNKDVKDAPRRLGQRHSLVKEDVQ
Procedure, shortened: as §1

UniProt Q8VGV7 = target: T4, UniProt Q8VGV7
T4 sequence (whole entry): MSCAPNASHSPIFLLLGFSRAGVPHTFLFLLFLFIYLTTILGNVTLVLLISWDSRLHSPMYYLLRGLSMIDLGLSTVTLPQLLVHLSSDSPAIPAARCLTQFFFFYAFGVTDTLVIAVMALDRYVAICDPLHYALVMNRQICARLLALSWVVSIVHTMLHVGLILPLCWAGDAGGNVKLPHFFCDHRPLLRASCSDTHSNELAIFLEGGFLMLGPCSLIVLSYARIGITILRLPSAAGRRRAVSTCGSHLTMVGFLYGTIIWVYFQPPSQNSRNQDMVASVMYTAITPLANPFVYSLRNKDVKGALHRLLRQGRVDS
Procedure, shortened: as §1

UniProt Q8VGX3 = target: T5, UniProt Q8VGX3
T5 sequence (whole entry): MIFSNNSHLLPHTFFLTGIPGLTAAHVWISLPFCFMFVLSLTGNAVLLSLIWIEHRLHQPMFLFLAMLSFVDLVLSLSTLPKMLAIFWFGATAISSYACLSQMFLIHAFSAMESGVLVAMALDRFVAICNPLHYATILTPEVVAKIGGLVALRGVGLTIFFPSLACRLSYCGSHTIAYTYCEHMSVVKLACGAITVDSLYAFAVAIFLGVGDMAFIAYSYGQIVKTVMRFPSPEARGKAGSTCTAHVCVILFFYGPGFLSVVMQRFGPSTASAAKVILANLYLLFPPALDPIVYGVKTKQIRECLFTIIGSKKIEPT
Procedure, shortened: as §1

UniProt Q8VGX5 = target: T6, UniProt Q8VGX5
T6 sequence (whole entry): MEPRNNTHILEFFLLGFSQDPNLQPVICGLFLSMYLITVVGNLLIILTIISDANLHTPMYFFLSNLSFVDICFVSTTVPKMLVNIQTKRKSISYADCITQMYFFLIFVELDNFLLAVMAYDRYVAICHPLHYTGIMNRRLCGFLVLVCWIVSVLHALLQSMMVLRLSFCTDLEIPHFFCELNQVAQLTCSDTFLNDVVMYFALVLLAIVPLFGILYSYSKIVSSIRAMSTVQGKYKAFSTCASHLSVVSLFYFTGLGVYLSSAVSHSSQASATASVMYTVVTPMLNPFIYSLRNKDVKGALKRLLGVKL
Procedure, shortened: as §1

UniProt Q8VGZ2 = target: T7, UniProt Q8VGZ2
T7 sequence (whole entry): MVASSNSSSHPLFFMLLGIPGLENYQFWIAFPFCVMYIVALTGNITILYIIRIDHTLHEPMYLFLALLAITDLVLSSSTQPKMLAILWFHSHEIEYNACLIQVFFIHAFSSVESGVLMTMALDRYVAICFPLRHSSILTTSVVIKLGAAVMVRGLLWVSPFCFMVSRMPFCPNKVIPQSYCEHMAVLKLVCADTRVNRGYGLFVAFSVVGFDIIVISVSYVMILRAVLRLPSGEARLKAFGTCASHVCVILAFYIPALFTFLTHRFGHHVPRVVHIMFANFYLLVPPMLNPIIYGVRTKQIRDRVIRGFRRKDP
Procedure, shortened: as §1

UniProt Q8VGW5 = target: T8, UniProt Q8VGW5
T8 sequence (whole entry): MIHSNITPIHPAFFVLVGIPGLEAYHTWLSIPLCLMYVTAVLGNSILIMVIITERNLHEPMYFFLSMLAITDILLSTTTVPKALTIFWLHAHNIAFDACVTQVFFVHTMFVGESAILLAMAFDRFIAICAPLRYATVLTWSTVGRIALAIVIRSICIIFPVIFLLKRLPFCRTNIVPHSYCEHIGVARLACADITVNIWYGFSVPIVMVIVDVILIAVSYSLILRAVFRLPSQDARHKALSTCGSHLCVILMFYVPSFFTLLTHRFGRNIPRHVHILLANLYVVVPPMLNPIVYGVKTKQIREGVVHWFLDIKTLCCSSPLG
Procedure, shortened: as §1
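Note: active if original authors judged signal statistically different from baseline.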

SMILES	odorant receptor agonist call (UniProt Q8VGJ3)	odorant receptor agonist call (UniProt Q8VGL0)	odorant receptor agonist call (UniProt Q8VGU3)	odorant receptor agonist call (UniProt Q8VGV7)	odorant receptor agonist call (UniProt Q8VGX3)	odorant receptor agonist call (UniProt Q8VGX5)	odorant receptor agonist call (UniProt Q8VGZ2)	odorant receptor agonist call (UniProt Q8VGW5)
CC(=O)C(C)=O	active	inactive	inactive	inactive	inactive	inactive	inactive	
CC(C)CC(=O)O	inactive	inactive	inactive	inactive	inactive	inactive	inactive	active
